# From PubChem BioAssay AID588499 (NMMLSC, 2011)
# Among all 360,000 compounds or so, about 610 (0.17%) were called active. Inconclusive results, whose numbers are uncertain, are shown with a selection of clear calls. Rule as the data show it: active = inhibition above about 30%; inconclusive = no clear call, values can overlap the other calls; inactive = below that.
# System: Botulinum neurotoxin type A light chain protease (Clostridium botulinum A str. ATCC 3502)
# Experiment: blockers of BoNT/A LC substrate cleavage – biochemical, flow cytometry, MLPCN library, primary screen (AID 588499); also: plate controls were buffer without enzyme for full effect and enzyme alone for no effect
# Details: multiplex microsphere protease substrate cleavage, at 10 µM, hits give high values
row,Compound,inhibition
1,N/C(=N\OC(=O)COc1ccccc1)c1ccncc1,inconclusive: 17.1%
2,CCCCOP(=O)(c1ccc(N(C)C)cc1)C(O)c1ccc(OC)c(OC)c1 (stereo not given),inconclusive: -39%
3,COc1cccc(C(C)(O)c2nc(-c3cc4ccccc4o3)cs2)c1 (stereo not given),inactive: -0.4%
4,Cc1cccn2c(=O)c(/C=N/O)c(N3CCCC3)nc12,inconclusive: -2.1%
5,Cc1cc(C(F)(F)F)nc(SCC(=O)Nc2ccccc2)n1,inconclusive: -1.6%
6,COc1ccc(OC)c(/C=N\NC(=O)c2ccc(-c3ccccc3)cc2)c1,inactive: -1.8%
7,COCCNc1nc(NCc2cccc(OC)c2)c2sc(-c3ccccc3)cc2n1,inactive: 1.4%
8,CCn1ncc(C(=O)Nc2cccc(Cl)c2)c1C,inactive: 0.6%
9,COc1ccc(CNc2nc3c(c(=O)n(Cc4ccc(F)cc4)c(=O)n3C)n2C)cc1,inconclusive: 0.9%
10,O=C(CN1C(=O)NC2(CCCC2)C1=O)NNC(=O)c1ccc(Br)cc1,inconclusive: 2.4%
11,Cc1ccnc(NS(=O)(=O)c2ccc(Oc3ccccc3)cc2)c1,inconclusive: 11.1%
12,Cc1cc2cc(CNC(=O)Nc3ccccc3)ccc2[nH]1,active: 54.8%
13,O=C(N/N=C/c1c(O)n(CCc2ccc(F)cc2)c(=O)[nH]c1=O)c1ccncc1,inactive: -0.8%
14,COc1cc(OC)cc(-c2cc3nc(C4CCN(C(=O)OC(C)(C)C)CC4)cc(=O)n3[nH]2)c1,inconclusive: -3.8%
15,O=c1[nH]nc(SCc2nnc(-c3cccc(Cl)c3)o2)n1C1CCCCC1,inconclusive: -2.3%
16,CCn1cc(C(=O)NCc2ccc3c(c2)OCO3)c(=O)c2cc(S(=O)(=O)N3CCOCC3)ccc21,inconclusive: -2.7%
17,O=C(Cc1cccs1)Nc1ccc(NC(=O)c2ccco2)cc1,inconclusive: -4.1%
18,O=C(NCCCN1CCOCC1)c1c(F)cccc1F,inconclusive: -3.3%
19,COc1ccc(CC(=O)NCc2ccc(Cl)cc2)cc1S(=O)(=O)N1CCOCC1,inconclusive: -0.6%
20,O=c1[nH]c(/C=C\c2ccccc2F)nc(O)c1[N+](=O)[O-],inactive: 2%
21,Cc1ccc(NC(=O)NC2C(NC(=O)Nc3ccc(C)cc3)N(C)C(=O)N2C)cc1 (stereo not given),inconclusive: 15.9%
22,CCOC(=O)Cn1c(=O)oc2cc(S(=O)(=O)NCCc3ccc(OCC)c(OCC)c3)ccc21,inconclusive: 1.6%
23,Cc1cc(C(C)(C)C)cc(C)c1C(=O)O,inconclusive: 18.6%

row,Compound,inhibition
1,O=C(Nc1ccccc1)N(c1ccccc1)C1C=CS(=O)(=O)C1 (stereo not given),inactive: -0.2%
2,Cc1cc(C(=O)Nc2c(F)cc(F)cc2Br)n(-c2ccccc2)n1,inactive: -3.5%
3,O=C(Cn1c(=O)c2cccn2c2ccccc21)Nc1ccc(F)cc1F,inconclusive: -2.3%
4,CC(C)c1cccc(C(C)C)c1NC(=S)Nc1cccc(Cl)c1,inconclusive: -3.6%
5,Brc1cc(Br)c2nc(-c3ccc(N4CCOCC4)cc3)ccc2c1,inconclusive: 33.6%
6,COCCN1C2=C(C(=O)CC(C)(C)C2)C(c2ccc(O)c(OC)c2)C2=C1CC(C)(C)CC2=O,inconclusive: 4.7%
7,Cc1cc(C)c(S(=O)(=O)NCC(=O)O)cc1C,inconclusive: 6.1%
8,Cc1ccc(S(=O)(=O)c2c(N)n(Cc3ccco3)c3nc4ccccc4nc23)cc1C,inconclusive: 7.1%
9,COc1ccccc1NC(=O)C(=O)Nc1ccccn1,inconclusive: -3.6%
10,CCc1ccc(NC(=O)N(CCOC)C2CCN(C(C)=O)CC2)cc1,inconclusive: 3.5%
11,C=C(C)COc1ccc2oc(C)c(C(=O)OCCOC)c2c1,inconclusive: -4.4%
12,CCCCCCC(=O)N(O)C1CC(=O)N(c2ccc(C)cc2)C1=O (stereo not given),active: 30.5%
13,CCc1ccc(C=NC23CN4CN(CN(C4)C2)C3)s1,inconclusive: -2.4%
14,Cc1cccc(NC(=O)c2cnc3n(c2=O)CCS3)c1,inconclusive: -0.2%
15,C=C(C)CSc1nnc([C@@H](N)Cc2ccccc2)o1,inconclusive: -41.6%
16,C/C(=N\NC(=O)COc1ccccc1-c1ccccc1)c1ccccn1,inactive: -2%
17,COC(=O)c1cc2c(N)c(C(=O)c3ccc(Cl)cc3)sc2nc1C(OC)OC,inconclusive: 35.1%
18,Cc1cccc(C)c1-n1c(=O)n(Cc2ccccc2)c(=O)c2[nH]cnc21,inconclusive: -9.1%
19,COc1ccccc1OCCNC(=O)CSC(=S)N1CCCC1,inconclusive: 3.8%
20,CC(=O)Nc1ccc(-c2ccnc3c2CC(C)(C(=O)NC(C)C)O3)cc1 (stereo not given),inactive: -0.1%
21,CCCOc1ccc(C(=O)N(CC(C)C)c2c(N)n(Cc3ccccc3)c(=O)[nH]c2=O)cc1,inactive: -1.2%
22,O=C(CCC1CCCCC1)Nc1ccccc1-c1ccccc1,inconclusive: 3%
23,CCOC(=O)c1cc2c(C)n(-c3ccc(N(C)C)cc3)c(C)c2cc(C(=O)OCC)c1=O,inconclusive: 4%

# Structures shown so far that have a thiophene ring, fused or not (four):
row,Compound,inhibition
7,COCCNc1nc(NCc2cccc(OC)c2)c2sc(-c3ccccc3)cc2n1,inactive: 1.4%
17,O=C(Cc1cccs1)Nc1ccc(NC(=O)c2ccco2)cc1,inconclusive: -4.1%
13,CCc1ccc(C=NC23CN4CN(CN(C4)C2)C3)s1,inconclusive: -2.4%
17,COC(=O)c1cc2c(N)c(C(=O)c3ccc(Cl)cc3)sc2nc1C(OC)OC,inconclusive: 35.1%

# Next part:

row,Compound,inhibition
1,CCN(CC)c1cc(Cl)c2nonc2c1N,inconclusive: 14.9%
2,COCOCCn1cc(CN2CCS(=O)(=O)N(Cc3ccc(-c4ccc(OC)cc4)cc3)C(C)C2=O)nn1 (stereo not given),inactive: -0.7%
3,COc1ccc(-c2cc(C(=O)N/N=C/c3sccc3C)c3ccccc3n2)c(OC)c1,inactive: 1.1%
4,O=C(CN1CCN(Cc2ccccc2)CC1)N/N=C/c1cccnc1,inconclusive: -39.8%
5,COc1c[nH]n(-c2ccccc2)c(=O)c1=O,inactive: -0.2%
6,CCn1nnc(C(=O)O)c1C(=O)O,inconclusive: -2.8%
7,COc1cc(C(=O)Nc2cc(-c3ccccc3)[nH]n2)cc(OC)c1OC,inconclusive: 3.5%
8,CCCCOC(=O)C1=C(C)Nc2ncnn2C1c1cc(OC)c(OC)cc1OC (stereo not given),inactive: -0.1%
9,CCN(C(=O)COC(=O)c1ccc2ccccc2n1)c1c(N)n(Cc2ccccc2)c(=O)[nH]c1=O,inactive: -3.3%
10,O=C(Nc1ccc(F)cc1)OC1CN2CCC1CC2 (stereo not given),inconclusive: 21.8%
11,CC1=CC(=C(C#N)c2nc3ccccc3s2)C=C(C)N1c1ccc(F)cc1,active: 36.4%
12,C=CCn1c(SCC(=O)Nc2cc(NC(C)=O)ccc2OC)nnc1-c1ccccn1,inconclusive: 2.1%
13,Cn1c(=O)c2c(nc(CN3CCN(c4ccccc4)CC3)n2Cc2ccccc2Cl)n(C)c1=O,inconclusive: 1.3%
14,O=C(/C=C/c1ccc([N+](=O)[O-])cc1)NCCSc1ccccc1,inconclusive: -0.3%
15,COc1ccc(CCNc2nc(-c3ccc(O)cc3)cs2)cc1OC,inconclusive: -9.5%
16,COc1ccc(C2CC(=O)N3CN(Cc4ccco4)CSC3=C2C#N)cc1 (stereo not given),inconclusive: 2.7%
17,CCCCN(C(=O)C1CCC1)c1c(N)n(Cc2ccccc2)c(=O)[nH]c1=O,inconclusive: 1.4%
18,CC(=O)Nc1cccc(OCCCNC(=O)c2ccc(F)cc2)c1,inconclusive: 6.1%
19,Cc1ccc(S(=O)(=O)N2CCN(c3nccnc3C#N)CC2)cc1,inconclusive: 2.3%
20,Cc1ccc(S(=O)(=O)Cc2ccc(C(=O)N3CCN(c4ccccn4)CC3)o2)cc1,inactive: -0.2%
21,CCCc1c(C(=O)O)cnn1-c1ccc(Cl)cc1,inconclusive: -53%
22,NC(=O)c1ccc(/C=N/O)[n+](Cc2ccccc2)c1,inconclusive: -1.6%
23,COC(=O)C[C@H]1C[C@@H]2c3cc(NC(=O)NC4CCCC4)ccc3O[C@@H]2[C@@H](CO)O1,inactive: 0%

# Ordered by number of heavy atoms (low to high): part of the list above
row,Compound,inhibition
10,O=C(Nc1ccc(F)cc1)OC1CN2CCC1CC2 (stereo not given),inconclusive: 21.8%
19,Cc1ccc(S(=O)(=O)N2CCN(c3nccnc3C#N)CC2)cc1,inconclusive: 2.3%
17,CCCCN(C(=O)C1CCC1)c1c(N)n(Cc2ccccc2)c(=O)[nH]c1=O,inconclusive: 1.4%

# Following part

row,Compound,inhibition
1,Cc1ccc(-c2nnc3c4ccccc4c(C)nn23)cc1S(=O)(=O)N1CCN(C)CC1,inconclusive: 2.4%
2,CCc1ccc(C(=O)C(C)OC(=O)c2nc3nc(C)cc(C)n3n2)cc1 (stereo not given),inactive: 0.3%
3,COc1ccc(-c2c(C)oc3c(CN4CCCCC4C)c(O)ccc3c2=O)cc1 (stereo not given),inactive: 0.4%
4,CC(=O)Nc1cccc(C(=O)/C=C/c2ccco2)c1,inconclusive: 0.4%
5,Cc1cc(C(O)c2ncc(-c3ccccc3)[nH]2)ccc1F (stereo not given),inactive: 0.2%
6,Cc1nnsc1-c1c(C(=O)N2CCOCC2)c(C)nn1-c1ccc(Cl)cc1,inconclusive: 1.8%
7,CCOC(=O)CSc1nc2sc3c(c2c(=O)n1-c1ccccc1)CCN(C(C)C)C3,active: 55.6%
8,CCCCOC(=O)C1=C(C)Nc2ncnn2C1c1ccc(OC)c(OC)c1 (stereo not given),inconclusive: -5.3%
9,C=CCN1C(=O)C(CC(=O)NCC)SC1=Nc1ccc(S(N)(=O)=O)cc1 (stereo not given),inconclusive: -0.2%
10,CC(=O)C(=Cc1ccc(-c2ccccc2)cc1)C(=O)c1ccccc1,inactive: 0.4%
11,CCCCC(Br)C(=O)Nc1ccc(S(=O)(=O)Nc2cc(C)nc(C)n2)cc1 (stereo not given),inactive: 2.1%
12,CCOc1ccc(CN(C(=O)c2cc3ccccc3oc2=O)C2CCS(=O)(=O)C2)cc1 (stereo not given),inconclusive: 9.6%
13,O=C(CN1C(=O)COc2ccc(Cl)cc21)Nc1ccc2c(c1)OCCO2,inconclusive: -5.4%
14,O=C(NC(Cc1ccccc1)c1ccc2c(c1)OCCCO2)c1ccccc1 (stereo not given),inconclusive: 0.6%
15,O=C(NNC(=O)c1cccc2ccccc12)c1cccc(F)c1,inactive: 0.2%
16,CCOC(=O)N1CCC(NC(=O)c2oc3c(c2C)-c2[nH]ncc2CC3)CC1,inconclusive: -2.9%
17,O=C(O)c1ccc2nc(C(F)(F)F)[nH]c2c1,inconclusive: -4.8%
18,Cc1ccc(/C=N/NC(=O)CN2CCN(Cc3ccccc3)CC2)o1,inconclusive: 7.6%
19,CC(C)Sc1nc(C(F)(F)F)cc(=O)n1-c1ccccc1,inconclusive: 0.4%
20,COc1cccc(NC(=O)N2CCCCCC2)c1,inactive: 3.1%
21,CC(=O)N(CCC1(C(C)C)CCOC(C)(C)C1)Cc1ccco1 (stereo not given),inconclusive: 1.5%
